Results are given in words; binding and its absence hold for the method and conditions named.

The record followed here is publication PMC9585516, “In Vitro Demonstration of Human Lipoyl Synthase Catalytic Activity in the Presence of NFU1” (ACS Bio & Med Chem Au, 2022).

This experiment has as its target human NFU1, amino acids 59-254, holo form (human) (UniProt Q9UMS0). Kind of experiment: SEC; HiPrep 16/60 Sephacryl HR S-200 in an anaerobic glovebox, 0.5 mL/min; 50 mM HEPES pH 7.5, 250 mM KCl, 10% glycerol, 2.5 mM TCEP, 10 mM BME; holo-LIAS alone (100 uM), holo-NFU1 alone (200 uM) and a 1:1 mixture; masses from a calibration curve; peak fractions checked by SDS-PAGE; both purified.

B1: human NFU1, amino acids 59-254, holo form (domain or fragment)
chain: GHMFIQTQDTPNPNSLKFIPGKPVLETRTMDFPTPAAAFRSPLARQLFRIEGVKSVFFGPDFITVTKENEELDWNLLKPDIYATIMDFFASGLPLVTEETPSGEAGSEEDDEVVAMIKELLDTRIRPTVQEDGGDVIYKGFEDGIVQLKLQGSCTSCPSSIITLKNGIQNMLQFYIPEVEGVEQVMDDESDEKEANSP
notes: Gly-His N-terminal appendage left after removal of the His6-SUMO tag; NFU1, human, Q9UMS0 (full length 1-254), N-terminally truncated variant, amino acids 59-254; Holo form with a [4Fe-4S] cluster; also called holo-NFU1; NFUI; source: E. coli BL21 (DE3) with pDB1282, purified under anoxic conditions (Ni-IMAC, SUMO tag removed with ULP1, SEC); not shown: His6, N-terminal, cleaved; SUMO, …
In the case of B1, the binding result is listed as “no binding (tested: 200 μM)”.
